Literature values in patent US20050043231A1, “Therapy for growth hormone induced insulin resistance in juveniles with growth disorders” (priority 2001, published 2005).
At least one structure is not confirmed: it was looked up by name or label, or the drawing left a doubt.

Key:
[1] = cited from earlier work
[2] = healthy rats, troglitazone prior to and together with rhGH; cited from earlier work

SMILES | effect on hGH-induced increase of blood glucose and plasma insulin ([1]; 3-6 month old obese ob/ob mice, short-term) | effect on GH induced weight gain ([1]; adult ob/ob mice) | effect on insulin-antagonistic action of rhGH in liver and peripheral tissues [2]
CCc1ccc(CCOc2ccc(CC3SC(=O)NC3=O)cc2)nc1 (stereo not drawn) [pioglitazone] | block the ability of hGH to increase blood glucose and plasma insulin levels | did not affect the GH induced weight gain | –
Cc1c(C)c2c(c(C)c1O)CCC(C)(COc1ccc(CC3SC(=O)NC3=O)cc1)O2 (stereo not drawn) [troglitazone] | – | – | counteract the insulin-antagonistic action of rhGH
